Assay results from PubChem BioAssay AID2551 (National Center for Advancing Translational Sciences (NCATS), 2010).
Out of some 310,000 compounds screened, about 17,000 (5.5%) were called active. The inconclusive results got no clear call from the source; some entries with a clear call stand among them for comparison. Calls come from the whole dose curve; as a rule, active = well fitted inhibition curve with a large enough effect; inconclusive = small, poorly fitted or top-dose-only effect, or effect the other way; inactive = no such curve, though single readings can be large or run the other way. Potencies of inconclusive entries are doubtful fits and often do not repeat.

Sequences of proteins named here, by UniProt entry; tags and fusion partners are left off. A change or cut given only in a name is not applied to a line headed by its entry.
UniProt P51450: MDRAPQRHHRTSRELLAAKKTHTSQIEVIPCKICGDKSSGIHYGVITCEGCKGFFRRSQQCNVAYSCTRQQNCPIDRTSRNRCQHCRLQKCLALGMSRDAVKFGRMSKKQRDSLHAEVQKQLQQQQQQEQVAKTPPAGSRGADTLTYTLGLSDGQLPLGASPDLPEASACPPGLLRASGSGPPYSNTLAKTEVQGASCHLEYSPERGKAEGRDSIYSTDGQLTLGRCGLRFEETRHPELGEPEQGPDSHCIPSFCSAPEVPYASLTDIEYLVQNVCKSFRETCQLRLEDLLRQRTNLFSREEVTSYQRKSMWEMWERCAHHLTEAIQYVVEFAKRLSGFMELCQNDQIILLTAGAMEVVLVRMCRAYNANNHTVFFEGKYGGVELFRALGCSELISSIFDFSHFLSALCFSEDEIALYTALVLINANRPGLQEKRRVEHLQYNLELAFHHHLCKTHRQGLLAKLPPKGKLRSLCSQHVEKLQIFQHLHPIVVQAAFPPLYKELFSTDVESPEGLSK

These compounds were tested against Nuclear receptor ROR-gamma (Mus musculus) (UniProt P51450) (assay: qHTS for inhibitors of ROR gamma transcriptional activity). Conditions: Drosophila S2 Gal4-RORgamma UAS-luciferase reporter, 20 h; activity change, negative = inhibition: at 53.6 µM (top of the series).
Method in brief: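 Schneider cells (Drosophila), stable Gal4 DBD–ROR gamma + UAS-luc; 1 hr cmpd preincubation; Cu2+ induction 700 uM final; 20 hr ambient; luminescence.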
% is set by controls: 0 for no effect and ±100 for the full control effect; potency is the fitted concentration of half-maximal effect.
Note: nearly all actives have a fitted effect of over 60% in size.

Potency, active:
COc1ccc(-c2n[nH]c(=S)n2C2CCCCC2)cc1 3.16 µM
c1ccc(-c2nc(-c3cccc4ccccc34)c(Nc3ccc4ccccc4c3)o2)cc1 5.62 µM
O=C1C=CC(=O)N1CCCCCCN1C(=O)C=CC1=O 3.16 µM
COc1ccc(OC)c2[nH]c(C(=O)N/N=C/c3ccccc3O)cc12 3.98 µM
C/C(CC(=O)Nc1ccc(Cl)c(C(F)(F)F)c1)=N\NC(N)=S 11.2 µM
CC(C)c1ccc2[nH]c3c(c2c1)CCC/C3=N\NC(=O)c1ccncc1 0.891 µM
CCCCn1c(=O)[nH]c(=O)c2c1nc(Cn1ncc(Cl)c(Cl)c1=O)n2CCC 15.8 µM
Cc1ccc(-n2[nH]c(C)c(/C=N/NC(=O)c3ccc(O)cc3O)c2=O)cc1 2.51 µM
NC(=S)N/N=C/C=C/c1ccccc1 2 µM
CC1(C)CC(=O)C(C=Nc2cccnc2/N=C/C2=C(O)CC(C)(C)CC2=O)=C(O)C1 10 µM
C=C(C)CNC(=S)N=Nc1c(O)[nH]c2ccc([N+](=O)[O-])cc12 2.51 µM

Potency, inconclusive:
CCc1ccc(NC(=O)[C@H](Cc2c[nH]c3ccccc23)NC(=O)[C@@H]2Cc3ccccc3CN2)cc1 35.5 µM [inhibitor, single point]
Cc1cc(C)c(-c2csc(NC(=O)c3cc([N+](=O)[O-])ccc3N3CCOCC3)n2)c(C)c1 31.6 µM [activator, single point]
Clc1cccc(Nc2ncnc3ccc(Br)cc23)c1 17.8 µM [activator, single point]
COc1cccc(NC(=O)Nc2ccc(C(C)(C)C)cc2)c1 11.2 µM [activator, partial curve]
O=C(Nc1c(F)cc(F)cc1Br)c1cccnc1 0.0708 µM [inhibitor, full curve, poor fit]
Cn1c(CNC(=O)OC(C)(C)C)n[nH]c1=S 22.4 µM [activator, single point]
COc1cccc(-n2ccnc2SCC(=O)N2CCc3ccccc32)c1 12.6 µM [inhibitor, partial curve, poor fit]
COC(=O)[C@@]1(Cc2ccccc2)[C@H]2c3cc(C(=O)N(C)C)n(Cc4cc(F)c(F)c(F)c4)c3C[C@H]2CN1C(=O)c1ccccc1 35.5 µM [activator, single point]
Cc1ccc(S(=O)(=O)NCc2ccccc2)cc1C(=O)N(C)Cc1ccc(F)cc1 14.1 µM [activator, single point]
CC(=O)c1c(C)[nH]c(C(=O)OCC(=O)Nc2cc(S(=O)(=O)N3CCCC3)ccc2Cl)c1C 14.1 µM [activator, single point]
O=C(Nc1ccc(NC(=O)c2ccco2)c(Cl)c1)c1ccc2c(c1)OCCO2 11.2 µM [inhibitor, partial curve, poor fit]
CCn1nc([N+](=O)[O-])c(C(C#N)c2nc3cc(C(F)(F)F)ccc3s2)c(Cl)c1=O (centres undefined) 14.1 µM [inhibitor, partial curve, poor fit]
Cc1cc(C)c2c(=O)[nH]n(C3CCOC(C)(C)C3)c2n1 (centres undefined) 0.708 µM [inhibitor, single point]
CC1CN(C2=Nc3cccc4cccc2c34)CC(C)O1 (centres undefined) 28.2 µM [inhibitor, single point]
Cc1ccc(CNc2ccc(N3CCOCC3)c(Cl)c2)cc1 12.6 µM [activator, single point]
O=S(=O)(NCc1cccs1)c1ccc(Br)cc1 35.5 µM [activator, single point]
COc1ccc(C(NC(C)=O)c2c(O)ccc3ccccc23)cc1OC (centres undefined) 0.0056 µM [activator, full curve]
Cc1ccc(C(C(=O)NC(C)(C)C)N(C(=O)c2csnn2)C2CC2)cc1 (centres undefined) 5.62 µM [activator, single point]
COC(=O)/C(=C/Nc1ccc(O)cc1)[N+](=O)[O-] 35.5 µM [inhibitor, single point]
Cn1c(Cn2c(=O)sc3ccccc32)nnc1SCC(=O)Nc1ccc(F)cc1 35.5 µM [activator, single point]
O=C(Nc1ccccc1)c1cnc2n(c1=O)CCS2 0.562 µM [activator, full curve, poor fit]
Cc1cc(C(=O)COC(=O)c2ccc(O)cc2)c(C)n1-c1ccccc1F 5.01 µM [inhibitor, partial curve]
O=C(NCC1CCCN(C(=O)CN2CCCCC2)C1)c1ccccc1Cl (centres undefined) 4.47 µM [activator, full curve]
Cc1ccc2c(c1)COc1c3ccc(C(=O)NCCO)cc3nn1-2 3.16 µM [inhibitor, partial curve]
CCC(CC)NC(=O)c1oc2ccccc2c1COc1ccccc1 0.794 µM [activator, full curve, poor fit]
CC(/C=N/NC(=O)c1sc(N)nc1C)=C\c1ccccc1 2 µM [activator, full curve]
COc1ccc(O[C@H]2C=C[C@@H](c3ccccc3)O[C@H]2COC(=O)N2CCCCC2)cc1 3.55 µM [activator, single point]
CCC(=O)Nc1cccc(C(=O)N(Cc2ccccc2)Cc2ccccc2)c1 17.8 µM [activator, partial curve]
Nc1nonc1C(=O)NC(c1ccccc1)c1ccccc1 10 µM [activator, partial curve]
CCOc1cc(-c2nc3cc(C)ccn3c2NCC2CCCO2)ccc1O (centres undefined) 35.5 µM [inhibitor, single point]
Cc1ccc2[nH]c3nc(SCCN4CCOCC4)nnc3c2c1 2.24 µM [inhibitor, single point]
Cc1ccc(S(=O)(=O)NC(=O)c2cc(C)n(-c3ccccc3)c2C)cc1 35.5 µM [inhibitor, single point]
O=C1c2cccc(OCC(=O)N3CCCc4ccccc43)c2CCN1Cc1ccc(F)cc1 20 µM [activator, single point]
COC(=O)c1cc(CSc2nc3ccccc3[nH]2)oc1C 5.62 µM [activator, partial curve]
COc1ccc(NC(=O)c2cc(CC(C)C)nc3ccccc23)cc1 35.5 µM [activator, single point]
O=C(NC(=S)NCCCN1CCOCC1)c1cccc2ccccc12 35.5 µM [inhibitor, single point]
C/C(CCC(=O)OC[C@H]1O[C@H](C#Cc2ccccc2)C=C[C@@H]1Oc1ccc(C)cc1)=N\OC[C@@H](O)[C@H]1O[C@@H]2OC(C)(C)O[C@@H]2[C@H]1O 3.16 µM [inhibitor, partial curve, poor fit]
Cc1cc(C)n(CC(O)Cn2c3ccccc3c3ccccc32)n1 (centres undefined) 20 µM [inhibitor, partial curve, poor fit]
CCc1c(C(=O)NNC(=S)NCCc2ccccc2)csc1C 35.5 µM [inhibitor, single point]

Activity change, negative = inhibition, inactive:
O=S(=O)(Nc1ccc(C(F)(F)F)cc1)c1cccs1 15.3%
O=C(O)CCNc1ccc(NCCC(=O)O)c2c1C(=O)c1ccccc1C2=O -43.9%
O=C1C(=O)N(CCN2CCOCC2)C(c2ccccc2)/C1=C(\O)c1ccc2c(c1)OCCO2 (centres undefined) 6.11%
CCc1ccc(N2C(=O)C3CCCN3C2=S)cc1 (centres undefined) -4.45%
COc1ccc2[nH]cc(CCNc3ccnc(-c4ccc(C(=O)N(C)C)cc4)n3)c2c1 9.49%
Oc1c(Cl)ccc(Cl)c1Cl 1.9%
COc1cc(NC(=O)CN(c2cc(C)cc(C)c2)S(=O)(=O)c2c(C)noc2C)cc(OC)c1 5.45%
O=c1c(CCc2ccccc2)nc2cnc(Oc3cccc(Cl)c3)nc2n1C[C@H]1CCCO1 35.3%
CCOC(=O)c1cnc2ccc(C)cc2c1NCCO -21.5%
Clc1ccc(-c2nnc(-c3ccccc3)o2)c(Cl)c1 -22.1%
Nc1c(Cl)ncnc1N1CCN(c2ncnc(Cl)c2N)CC1 -2.87%
CN(CC1CCCO1)S(=O)(=O)c1ccc(C(=O)Nc2ccc(S(N)(=O)=O)cc2)cc1 (centres undefined) 30.9%
O=C(Nc1cccc(S(=O)(=O)NC2=NCCCCC2)c1)C1COc2ccccc2O1 (centres undefined) 0.343%
COC(=O)Cc1n[nH]c(=O)c2ccccc12 -21.1%
COCCN(C(=O)CSc1nnc(-c2cccc(C)c2)n1C)c1c(N)n(Cc2ccccc2)c(=O)[nH]c1=O -7.87%
Cc1cc(NC(=O)CN2CCCCC2)no1 16.4%
CC/C(=C(/c1ccccc1)c1ccc(OCCN(C)C)cc1)c1ccccc1 -40.4%
CCOc1ccccc1/C=N/n1c(C)nc2ccccc2c1=O -17.9%
Cc1ccc(C)c(N2C(=O)CC(Cc3ccc(Br)cc3)C2=O)c1 (centres undefined) 18.9%
COc1cccc(/C=C/C(=O)OCC(=O)NCC2CCCO2)c1OC (centres undefined) -7.18%
N#Cc1cc(C(=O)c2cc(Br)ccc2O)cn(C2CC2)c1=O -45%
CSCc1cc(N(C)c2ccccc2)nc(-c2ccccc2)n1 0.86%
NC(=O)c1ccccc1NCC(=O)c1ccc(F)cc1 7.87%
Cc1ccc2[nH]c(=O)c(CN(Cc3ccco3)C(=O)c3ccncc3)cc2c1 13.9%

4 entries already listed, arranged by molar mass, ascending:
Activity change, negative = inhibition, inactive:
CCc1ccc(N2C(=O)C3CCCN3C2=S)cc1 (centres undefined) -4.45%
CCOC(=O)c1cnc2ccc(C)cc2c1NCCO -21.5%
O=C1C(=O)N(CCN2CCOCC2)C(c2ccccc2)/C1=C(\O)c1ccc2c(c1)OCCO2 (centres undefined) 6.11%
O=c1c(CCc2ccccc2)nc2cnc(Oc3cccc(Cl)c3)nc2n1C[C@H]1CCCO1 35.3%
